Results taken from article PMC3851374.
No constants are given. Whether binding was seen depends on the method and setting. In cells and extracts the contact can be indirect. Some binding calls cover weakened binding; strength is not graded here. Tags and fused reporters may be left off the sequences shown.

Molecular target: glutamate NMDA receptor NR1 subunit (mouse (endogenous in cerebral cortex synaptosomes and cortical cell cultures)) (UniProt P35438)
Assay: co-IP; membranes of cortical cell cultures from WT and HINT1-/- mice, uninfected or infected with HINT1 lentiviral particles; NR1 subunits immunoprecipitated, blots probed for HINT1 and CNR1; cells from 10 wells pooled

binding: binds
B1: histidine triad nucleotide-binding protein 1 (protein, UniProt P70349 1-126)
chain: MADEIAKAQVAQPGGDTIFGKIIRKEIPAKIIFEDDRCLAFHDISPQAPTHFLVIPKKHISQISVADDDDESLLGHLMIVGKKCAADLGLKRGYRMVVNEGADGGQSVYHIHLHVLGGRQMNWPPG
